Data as given in the supplement of paper PMC6411743.
± gives the standard deviation of the averaged measurements. Some of the results follow.

By UniProt entry, the sequences of proteins in these tests, tags left out. Where a name states a change or a piece, a line headed by the entry shows the natural chain unless it says otherwise.
UniProt P42166: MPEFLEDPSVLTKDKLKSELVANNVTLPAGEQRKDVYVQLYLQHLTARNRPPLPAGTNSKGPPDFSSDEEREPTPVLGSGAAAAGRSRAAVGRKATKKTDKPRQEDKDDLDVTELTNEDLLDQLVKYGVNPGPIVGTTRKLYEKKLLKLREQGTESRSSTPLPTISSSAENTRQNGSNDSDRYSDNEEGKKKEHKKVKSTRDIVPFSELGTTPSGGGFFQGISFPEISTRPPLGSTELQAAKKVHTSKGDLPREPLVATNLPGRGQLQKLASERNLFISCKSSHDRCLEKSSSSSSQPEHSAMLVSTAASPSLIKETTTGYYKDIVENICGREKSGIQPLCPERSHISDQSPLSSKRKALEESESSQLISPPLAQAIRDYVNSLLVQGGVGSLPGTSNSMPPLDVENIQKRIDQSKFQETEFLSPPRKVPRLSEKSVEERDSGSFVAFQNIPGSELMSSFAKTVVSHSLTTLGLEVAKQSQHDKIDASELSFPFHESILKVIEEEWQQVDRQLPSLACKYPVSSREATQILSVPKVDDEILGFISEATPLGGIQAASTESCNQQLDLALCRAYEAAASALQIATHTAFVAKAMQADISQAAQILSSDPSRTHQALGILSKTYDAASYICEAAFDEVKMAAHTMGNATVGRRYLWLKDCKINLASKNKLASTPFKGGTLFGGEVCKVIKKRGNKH
UniProt P42684, whole entry: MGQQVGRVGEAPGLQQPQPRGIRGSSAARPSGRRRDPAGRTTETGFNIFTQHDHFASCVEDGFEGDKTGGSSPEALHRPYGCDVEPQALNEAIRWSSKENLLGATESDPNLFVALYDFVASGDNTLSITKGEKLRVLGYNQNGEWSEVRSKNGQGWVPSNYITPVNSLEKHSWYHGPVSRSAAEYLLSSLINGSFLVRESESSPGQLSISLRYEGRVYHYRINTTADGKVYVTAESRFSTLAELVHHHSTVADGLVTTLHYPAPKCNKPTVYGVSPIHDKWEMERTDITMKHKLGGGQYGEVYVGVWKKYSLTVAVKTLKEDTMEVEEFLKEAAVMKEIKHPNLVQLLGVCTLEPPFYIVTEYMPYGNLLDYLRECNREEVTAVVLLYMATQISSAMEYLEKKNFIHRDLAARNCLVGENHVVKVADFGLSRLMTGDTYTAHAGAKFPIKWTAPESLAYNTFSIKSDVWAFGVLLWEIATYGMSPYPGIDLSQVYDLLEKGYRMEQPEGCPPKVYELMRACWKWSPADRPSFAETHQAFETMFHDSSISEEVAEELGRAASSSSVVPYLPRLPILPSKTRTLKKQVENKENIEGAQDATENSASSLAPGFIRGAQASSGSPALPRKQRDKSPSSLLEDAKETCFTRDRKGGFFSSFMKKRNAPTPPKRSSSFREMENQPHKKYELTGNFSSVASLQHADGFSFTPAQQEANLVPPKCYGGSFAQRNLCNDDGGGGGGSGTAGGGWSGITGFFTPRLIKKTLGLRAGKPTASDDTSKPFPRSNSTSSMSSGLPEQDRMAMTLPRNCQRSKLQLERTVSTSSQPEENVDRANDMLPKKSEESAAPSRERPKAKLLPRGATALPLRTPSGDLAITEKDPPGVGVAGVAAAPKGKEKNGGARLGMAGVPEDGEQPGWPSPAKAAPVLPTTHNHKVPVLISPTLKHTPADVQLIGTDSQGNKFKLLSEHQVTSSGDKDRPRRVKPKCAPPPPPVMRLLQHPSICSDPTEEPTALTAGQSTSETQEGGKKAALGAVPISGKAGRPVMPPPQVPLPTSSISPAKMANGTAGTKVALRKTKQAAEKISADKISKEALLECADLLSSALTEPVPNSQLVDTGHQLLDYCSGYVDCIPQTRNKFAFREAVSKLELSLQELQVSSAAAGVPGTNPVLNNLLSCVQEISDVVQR
UniProt P42566: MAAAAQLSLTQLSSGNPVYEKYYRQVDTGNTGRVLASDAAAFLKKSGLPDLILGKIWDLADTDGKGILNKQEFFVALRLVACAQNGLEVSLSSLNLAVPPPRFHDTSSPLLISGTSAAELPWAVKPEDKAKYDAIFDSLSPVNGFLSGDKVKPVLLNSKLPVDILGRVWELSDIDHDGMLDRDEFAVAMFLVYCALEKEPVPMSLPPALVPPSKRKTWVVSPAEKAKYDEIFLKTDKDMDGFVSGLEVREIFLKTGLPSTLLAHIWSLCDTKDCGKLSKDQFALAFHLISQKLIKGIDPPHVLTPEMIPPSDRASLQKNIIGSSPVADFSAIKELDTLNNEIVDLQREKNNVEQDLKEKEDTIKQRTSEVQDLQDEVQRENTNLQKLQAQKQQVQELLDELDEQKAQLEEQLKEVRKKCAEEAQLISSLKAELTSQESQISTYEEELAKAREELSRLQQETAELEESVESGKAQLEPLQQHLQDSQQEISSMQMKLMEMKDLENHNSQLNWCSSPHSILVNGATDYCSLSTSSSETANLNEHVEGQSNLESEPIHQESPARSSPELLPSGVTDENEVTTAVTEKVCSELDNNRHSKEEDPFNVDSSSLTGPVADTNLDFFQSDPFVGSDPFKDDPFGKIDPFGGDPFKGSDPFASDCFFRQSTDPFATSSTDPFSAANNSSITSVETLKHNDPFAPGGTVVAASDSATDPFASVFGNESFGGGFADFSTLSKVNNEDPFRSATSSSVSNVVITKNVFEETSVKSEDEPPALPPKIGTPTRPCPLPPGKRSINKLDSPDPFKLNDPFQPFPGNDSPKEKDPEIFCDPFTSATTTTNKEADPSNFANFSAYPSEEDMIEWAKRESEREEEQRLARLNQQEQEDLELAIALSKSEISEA
UniProt P42785: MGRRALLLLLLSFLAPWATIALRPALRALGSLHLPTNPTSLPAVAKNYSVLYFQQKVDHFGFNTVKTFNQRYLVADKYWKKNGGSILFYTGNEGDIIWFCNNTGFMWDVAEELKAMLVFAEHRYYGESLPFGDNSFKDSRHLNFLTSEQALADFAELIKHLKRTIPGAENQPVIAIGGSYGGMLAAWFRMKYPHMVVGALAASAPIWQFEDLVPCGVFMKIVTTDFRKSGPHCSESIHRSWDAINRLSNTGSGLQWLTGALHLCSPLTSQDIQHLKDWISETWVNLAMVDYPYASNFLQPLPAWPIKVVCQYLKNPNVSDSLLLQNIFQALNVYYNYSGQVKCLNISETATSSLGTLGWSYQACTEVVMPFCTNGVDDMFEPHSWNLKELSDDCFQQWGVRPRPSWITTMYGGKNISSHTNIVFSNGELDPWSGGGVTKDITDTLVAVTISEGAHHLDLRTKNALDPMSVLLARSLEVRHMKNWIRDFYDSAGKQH
UniProt P28062: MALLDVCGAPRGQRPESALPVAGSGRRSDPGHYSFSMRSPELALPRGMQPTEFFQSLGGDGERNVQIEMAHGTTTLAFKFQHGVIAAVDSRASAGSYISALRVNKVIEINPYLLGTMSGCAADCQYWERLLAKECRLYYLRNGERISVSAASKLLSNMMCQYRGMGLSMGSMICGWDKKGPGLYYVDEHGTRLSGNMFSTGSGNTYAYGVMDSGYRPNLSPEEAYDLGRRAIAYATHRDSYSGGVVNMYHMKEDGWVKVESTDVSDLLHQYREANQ
UniProt P31948, whole entry, looked up: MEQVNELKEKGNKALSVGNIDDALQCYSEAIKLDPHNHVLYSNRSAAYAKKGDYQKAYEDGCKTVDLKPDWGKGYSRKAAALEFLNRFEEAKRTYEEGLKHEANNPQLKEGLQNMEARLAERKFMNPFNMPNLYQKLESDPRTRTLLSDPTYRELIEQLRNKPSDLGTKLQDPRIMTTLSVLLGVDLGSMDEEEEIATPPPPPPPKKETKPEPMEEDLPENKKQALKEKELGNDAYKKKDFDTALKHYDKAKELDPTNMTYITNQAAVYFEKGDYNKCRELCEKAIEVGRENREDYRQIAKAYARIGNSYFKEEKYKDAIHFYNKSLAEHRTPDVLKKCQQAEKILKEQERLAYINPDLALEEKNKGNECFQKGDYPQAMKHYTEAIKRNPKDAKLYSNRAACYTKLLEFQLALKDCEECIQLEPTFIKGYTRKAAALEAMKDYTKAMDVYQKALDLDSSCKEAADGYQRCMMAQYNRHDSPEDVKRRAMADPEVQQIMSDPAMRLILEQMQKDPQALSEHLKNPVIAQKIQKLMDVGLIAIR
UniProt P47756, whole entry: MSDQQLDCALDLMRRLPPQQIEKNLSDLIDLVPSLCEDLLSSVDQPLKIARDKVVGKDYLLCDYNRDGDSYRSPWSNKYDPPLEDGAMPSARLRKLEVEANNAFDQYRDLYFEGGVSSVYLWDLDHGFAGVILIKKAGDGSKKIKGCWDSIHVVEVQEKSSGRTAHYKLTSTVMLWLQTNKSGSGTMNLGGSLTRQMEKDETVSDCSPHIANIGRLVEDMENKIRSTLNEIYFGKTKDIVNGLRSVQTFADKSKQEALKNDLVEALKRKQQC
UniProt P40939: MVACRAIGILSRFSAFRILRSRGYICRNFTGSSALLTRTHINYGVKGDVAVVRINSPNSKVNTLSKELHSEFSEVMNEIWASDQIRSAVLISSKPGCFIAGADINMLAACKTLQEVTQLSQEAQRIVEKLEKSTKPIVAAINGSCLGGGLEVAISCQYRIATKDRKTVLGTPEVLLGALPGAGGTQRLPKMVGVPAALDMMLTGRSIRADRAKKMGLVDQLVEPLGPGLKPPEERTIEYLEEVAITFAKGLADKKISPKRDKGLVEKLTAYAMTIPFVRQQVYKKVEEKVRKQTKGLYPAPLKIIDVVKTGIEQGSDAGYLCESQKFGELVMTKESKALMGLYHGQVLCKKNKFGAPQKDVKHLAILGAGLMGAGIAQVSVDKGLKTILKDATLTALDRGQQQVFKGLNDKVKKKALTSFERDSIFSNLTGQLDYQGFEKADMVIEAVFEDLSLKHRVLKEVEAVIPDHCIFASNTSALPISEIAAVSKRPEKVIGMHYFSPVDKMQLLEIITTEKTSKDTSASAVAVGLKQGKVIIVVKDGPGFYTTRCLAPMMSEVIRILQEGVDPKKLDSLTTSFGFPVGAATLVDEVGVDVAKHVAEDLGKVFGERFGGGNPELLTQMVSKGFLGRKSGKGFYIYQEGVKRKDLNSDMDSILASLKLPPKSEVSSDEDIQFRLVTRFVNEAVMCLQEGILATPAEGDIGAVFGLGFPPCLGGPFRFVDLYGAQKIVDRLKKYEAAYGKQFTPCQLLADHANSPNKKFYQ
UniProt P41091, whole entry: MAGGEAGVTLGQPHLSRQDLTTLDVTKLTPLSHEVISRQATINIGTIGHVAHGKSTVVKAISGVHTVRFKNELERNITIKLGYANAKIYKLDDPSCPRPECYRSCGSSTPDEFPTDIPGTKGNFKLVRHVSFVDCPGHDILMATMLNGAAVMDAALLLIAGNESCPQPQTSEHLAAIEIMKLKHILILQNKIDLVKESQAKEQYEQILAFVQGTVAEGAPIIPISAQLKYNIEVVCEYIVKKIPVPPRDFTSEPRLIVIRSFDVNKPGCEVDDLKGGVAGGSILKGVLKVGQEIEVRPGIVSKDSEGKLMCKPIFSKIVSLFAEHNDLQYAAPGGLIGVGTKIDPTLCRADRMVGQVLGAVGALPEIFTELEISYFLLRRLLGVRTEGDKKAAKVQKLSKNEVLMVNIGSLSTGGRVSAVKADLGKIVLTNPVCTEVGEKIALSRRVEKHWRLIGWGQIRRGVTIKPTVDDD
UniProt P33316: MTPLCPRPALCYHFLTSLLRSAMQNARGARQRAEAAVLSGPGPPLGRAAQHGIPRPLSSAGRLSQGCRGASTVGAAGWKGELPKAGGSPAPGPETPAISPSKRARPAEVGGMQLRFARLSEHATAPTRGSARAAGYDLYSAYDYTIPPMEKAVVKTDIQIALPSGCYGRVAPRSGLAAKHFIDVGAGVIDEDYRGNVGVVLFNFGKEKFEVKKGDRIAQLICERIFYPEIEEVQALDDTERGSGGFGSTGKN
UniProt P49757: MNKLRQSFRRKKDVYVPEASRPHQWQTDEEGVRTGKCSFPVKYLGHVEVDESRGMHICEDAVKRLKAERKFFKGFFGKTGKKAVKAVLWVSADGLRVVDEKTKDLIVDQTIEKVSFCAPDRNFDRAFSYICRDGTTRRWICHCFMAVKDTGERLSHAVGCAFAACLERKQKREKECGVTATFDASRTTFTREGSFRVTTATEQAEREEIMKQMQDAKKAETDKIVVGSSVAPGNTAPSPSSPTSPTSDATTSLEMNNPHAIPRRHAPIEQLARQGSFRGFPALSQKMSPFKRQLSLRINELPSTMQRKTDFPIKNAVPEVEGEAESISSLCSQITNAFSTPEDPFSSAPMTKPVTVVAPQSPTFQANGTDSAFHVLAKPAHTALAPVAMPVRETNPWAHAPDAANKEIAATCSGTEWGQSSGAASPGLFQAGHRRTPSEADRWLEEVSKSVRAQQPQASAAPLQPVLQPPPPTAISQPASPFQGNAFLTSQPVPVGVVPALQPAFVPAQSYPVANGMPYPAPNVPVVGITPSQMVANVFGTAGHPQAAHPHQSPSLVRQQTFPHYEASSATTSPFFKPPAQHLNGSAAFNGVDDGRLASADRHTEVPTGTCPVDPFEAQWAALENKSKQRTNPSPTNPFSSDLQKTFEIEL

compound: Nc1nc2c(ncn2[C@@H]2O[C@H](COP(=O)(O)OP(=O)(O)OP(=O)(O)O)[C@@H](O)[C@H]2O)c(=O)[nH]1 [guanosine triphosphate]; test: NP40-soluble protein abundance relative to vehicle (solubility fold change) (ratio); higher = more soluble protein in presence of GTP; settings: concentration: 8mM
Procedure, shortened: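 Jurkat crude lysate (Dounce-homogenised) was treated with eight concentrations from 0.1 to 10 mM for 10 min at room temperature, then 3 min at 37 °C. It was solubilised with 0.8% NP40 and benzonase (60 min, 4 °C) and ultracentrifuged, and the supernatant was TMT-labelled for LC-MS/MS. Intensities were vsn-normalised, and the value is the fold change against the NP40-processed vehicle per replicate, from three independent experiments.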

Q: “P42166 and related entries (UniProt P42167+P42166)” was tested. Which NP40-soluble protein abundance did it give?
A: 1.03 ± 0.062

Q: For RPL21 (UniProt P46778), which NP40-soluble protein abundance is on record?
A: 0.72 ± 0.22

Q: For MAPKAPK2 (UniProt P49137), which NP40-soluble protein abundance is on record?
A: 1.02 ± 0.044

Q: How did the NP40-soluble protein abundance turn out when UniProt P42684 and related entries was run?
A: 1.04 ± 0.028

Q: For UniProt P48960 and related entries, which NP40-soluble protein abundance is on record?
A: 0.996 ± 0.085

Q: How did the NP40-soluble protein abundance turn out when EPS15 (UniProt P42566) was run?
A: 0.974 ± 0.067

Q: With UniProt P29374 and related entries as the target, how does the NP40-soluble protein abundance read?
A: 1.2 ± 0.14

Q: PRCP (UniProt P42785) was tested. Which NP40-soluble protein abundance did it give?
A: 0.938 ± 0.083

Q: How did the NP40-soluble protein abundance turn out when UniProt P49366 and related entries was run?
A: 0.889 ± 0.086

Q: How did the NP40-soluble protein abundance turn out when MTHFS (UniProt P49914) was run?
A: 0.794 ± 0.093

Q: With UniProt P48426 and related entries as the target, how does the NP40-soluble protein abundance read?
A: 1.07 ± 0.042

Q: Which NP40-soluble protein abundance does the source give for CRKL (UniProt P46109) here?
A: 0.923 ± 0.093

Q: UniProt P28838 and related entries was tested. Which NP40-soluble protein abundance did it give?
A: 0.915 ± 0.052

Q: Which NP40-soluble protein abundance does the source give for SLC7A1 (UniProt P30825) here?
A: 0.995 ± 0.093

Q: UniProt P49336 and related entries was tested. Which NP40-soluble protein abundance did it give?
A: 1.22 ± 0.12

Q: How did the NP40-soluble protein abundance turn out when UniProt P34896 and related entries was run?
A: 0.957 ± 0.012

Q: How did the NP40-soluble protein abundance turn out when “P28062 and related entries (UniProt X5D2R7+P28062)” was run?
A: 0.983 ± 0.12

Q: For STIP1 (UniProt P31948), which NP40-soluble protein abundance is on record?
A: 0.966 ± 0.021

Q: With UniProt P29590 and related entries as the target, how does the NP40-soluble protein abundance read?
A: 0.917 ± 0.066

Q: UniProt P47756-2 was tested. Which NP40-soluble protein abundance did it give?
A: 0.965 ± 0.054

Q: For UniProt P45985 and related entries, which NP40-soluble protein abundance is on record?
A: 0.903 ± 0.024

Q: For MTOR (UniProt P42345), which NP40-soluble protein abundance is on record?
A: 1.01 ± 0.049

Q: How did the NP40-soluble protein abundance turn out when UniProt P46459 and related entries was run?
A: 0.998 ± 0.064

Q: Which NP40-soluble protein abundance does the source give for UniProt P46736 and related entries here?
A: 0.992 ± 0.015

Q: How did the NP40-soluble protein abundance turn out when MTIF2 (UniProt P46199) was run?
A: 0.925 ± 0.032

Q: HIBADH (UniProt P31937) was tested. Which NP40-soluble protein abundance did it give?
A: 0.97 ± 0.012

Q: With HADHA (UniProt P40939) as the target, how does the NP40-soluble protein abundance read?
A: 0.955 ± 0.057

Q: With UniProt P38398 and related entries as the target, how does the NP40-soluble protein abundance read?
A: 1.01 ± 0.069

Q: Which NP40-soluble protein abundance does the source give for RPS19 (UniProt P39019) here?
A: 0.59 ± 0.19

Q: Which NP40-soluble protein abundance does the source give for HSPA4 (UniProt P34932) here?
A: 0.92 ± 0.053

Q: Which NP40-soluble protein abundance does the source give for PRKAR2B (UniProt P31323) here?
A: 0.943 ± 0.044

Q: UniProt P46934-4 was tested. Which NP40-soluble protein abundance did it give?
A: 1.01 ± 0.038

Q: For EIF2S3 (UniProt P41091), which NP40-soluble protein abundance is on record?
A: 0.956 ± 0.025

Q: With AKT1 (UniProt P31749) as the target, how does the NP40-soluble protein abundance read?
A: 0.7972 ± 0.0021

Q: For UniProt P33316 and related entries, which NP40-soluble protein abundance is on record?
A: 0.877 ± 0.06

Q: For UniProt P49757 and related entries, which NP40-soluble protein abundance is on record?
A: 1.1 ± 0.03

Q: With MYH9 (UniProt P35579) as the target, how does the NP40-soluble protein abundance read?
A: 1.03 ± 0.11

Q: For UniProt P48047, which NP40-soluble protein abundance is on record?
A: 0.921 ± 0.17

same assay, conditions: concentration: 10mM

Q: How did the NP40-soluble protein abundance turn out when “P42166 and related entries (UniProt P42167+P42166)” was run?
A: 1.05 ± 0.063

Q: RPL21 (UniProt P46778) was tested. Which NP40-soluble protein abundance did it give?
A: 0.971 ± 0.23

Q: With MAPKAPK2 (UniProt P49137) as the target, how does the NP40-soluble protein abundance read?
A: 0.877 ± 0.077

Q: UniProt P42684 and related entries was tested. Which NP40-soluble protein abundance did it give?
A: 1.05 ± 0.019

Q: For UniProt P48960 and related entries, which NP40-soluble protein abundance is on record?
A: 1.03 ± 0.051

Q: For EPS15 (UniProt P42566), which NP40-soluble protein abundance is on record?
A: 0.96 ± 0.086

Q: UniProt P29374 and related entries was tested. Which NP40-soluble protein abundance did it give?
A: 1.19 ± 0.18

Q: With PRCP (UniProt P42785) as the target, how does the NP40-soluble protein abundance read?
A: 0.977 ± 0.11

Q: How did the NP40-soluble protein abundance turn out when UniProt P49366 and related entries was run?
A: 0.894 ± 0.079

Q: MTHFS (UniProt P49914) was tested. Which NP40-soluble protein abundance did it give?
A: 0.804 ± 0.082

Q: Which NP40-soluble protein abundance does the source give for UniProt P48426 and related entries here?
A: 1.1 ± 0.053

Q: Which NP40-soluble protein abundance does the source give for CRKL (UniProt P46109) here?
A: 0.876 ± 0.086

Q: How did the NP40-soluble protein abundance turn out when UniProt P28838 and related entries was run?
A: 0.887 ± 0.036

Q: For SLC7A1 (UniProt P30825), which NP40-soluble protein abundance is on record?
A: 1 ± 0.12

Q: For UniProt P49336 and related entries, which NP40-soluble protein abundance is on record?
A: 1.1 ± 0.053

Q: UniProt P34896 and related entries was tested. Which NP40-soluble protein abundance did it give?
A: 0.954 ± 0.015

Q: Which NP40-soluble protein abundance does the source give for “P28062 and related entries (UniProt X5D2R7+P28062)” here?
A: 0.97 ± 0.14

Q: How did the NP40-soluble protein abundance turn out when STIP1 (UniProt P31948) was run?
A: 0.993 ± 0.048

Q: For UniProt P29590 and related entries, which NP40-soluble protein abundance is on record?
A: 0.939 ± 0.068

Q: For UniProt P47756-2, which NP40-soluble protein abundance is on record?
A: 0.952 ± 0.059

Q: UniProt P45985 and related entries was tested. Which NP40-soluble protein abundance did it give?
A: 0.873 ± 0.056

Q: With MTOR (UniProt P42345) as the target, how does the NP40-soluble protein abundance read?
A: 0.917 ± 0.071

Q: With UniProt P46459 and related entries as the target, how does the NP40-soluble protein abundance read?
A: 0.956 ± 0.037

Q: With UniProt P46736 and related entries as the target, how does the NP40-soluble protein abundance read?
A: 0.959 ± 0.051

Q: MTIF2 (UniProt P46199) was tested. Which NP40-soluble protein abundance did it give?
A: 0.937 ± 0.037

Q: HIBADH (UniProt P31937) was tested. Which NP40-soluble protein abundance did it give?
A: 0.984 ± 0.072

Q: HADHA (UniProt P40939) was tested. Which NP40-soluble protein abundance did it give?
A: 0.928 ± 0.049

Q: Which NP40-soluble protein abundance does the source give for UniProt P38398 and related entries here?
A: 1.04 ± 0.12

Q: How did the NP40-soluble protein abundance turn out when RPS19 (UniProt P39019) was run?
A: 0.92 ± 0.41

Q: How did the NP40-soluble protein abundance turn out when HSPA4 (UniProt P34932) was run?
A: 0.916 ± 0.06

Q: Which NP40-soluble protein abundance does the source give for PRKAR2B (UniProt P31323) here?
A: 0.983 ± 0.024

Q: UniProt P46934-4 was tested. Which NP40-soluble protein abundance did it give?
A: 0.938 ± 0.039

Q: For EIF2S3 (UniProt P41091), which NP40-soluble protein abundance is on record?
A: 0.931 ± 0.065

Q: For AKT1 (UniProt P31749), which NP40-soluble protein abundance is on record?
A: 0.767 ± 0.011

Q: UniProt P33316 and related entries was tested. Which NP40-soluble protein abundance did it give?
A: 0.909 ± 0.062

Q: UniProt P49757 and related entries was tested. Which NP40-soluble protein abundance did it give?
A: 1.1 ± 0.093

Q: With MYH9 (UniProt P35579) as the target, how does the NP40-soluble protein abundance read?
A: 0.991 ± 0.1

Q: With UniProt P48047 as the target, how does the NP40-soluble protein abundance read?
A: 1.06 ± 0.22
